From doi:10.1101/2023.12.08.570815

Assays:
[1] = biological target: T1, HA-miniTurbo-tagged ULK1 (unc-51 like autophagy activating kinase 1) (UniProt O75385); assay: affinity purification with mass spectrometry + proximity labelling
T1 sequence: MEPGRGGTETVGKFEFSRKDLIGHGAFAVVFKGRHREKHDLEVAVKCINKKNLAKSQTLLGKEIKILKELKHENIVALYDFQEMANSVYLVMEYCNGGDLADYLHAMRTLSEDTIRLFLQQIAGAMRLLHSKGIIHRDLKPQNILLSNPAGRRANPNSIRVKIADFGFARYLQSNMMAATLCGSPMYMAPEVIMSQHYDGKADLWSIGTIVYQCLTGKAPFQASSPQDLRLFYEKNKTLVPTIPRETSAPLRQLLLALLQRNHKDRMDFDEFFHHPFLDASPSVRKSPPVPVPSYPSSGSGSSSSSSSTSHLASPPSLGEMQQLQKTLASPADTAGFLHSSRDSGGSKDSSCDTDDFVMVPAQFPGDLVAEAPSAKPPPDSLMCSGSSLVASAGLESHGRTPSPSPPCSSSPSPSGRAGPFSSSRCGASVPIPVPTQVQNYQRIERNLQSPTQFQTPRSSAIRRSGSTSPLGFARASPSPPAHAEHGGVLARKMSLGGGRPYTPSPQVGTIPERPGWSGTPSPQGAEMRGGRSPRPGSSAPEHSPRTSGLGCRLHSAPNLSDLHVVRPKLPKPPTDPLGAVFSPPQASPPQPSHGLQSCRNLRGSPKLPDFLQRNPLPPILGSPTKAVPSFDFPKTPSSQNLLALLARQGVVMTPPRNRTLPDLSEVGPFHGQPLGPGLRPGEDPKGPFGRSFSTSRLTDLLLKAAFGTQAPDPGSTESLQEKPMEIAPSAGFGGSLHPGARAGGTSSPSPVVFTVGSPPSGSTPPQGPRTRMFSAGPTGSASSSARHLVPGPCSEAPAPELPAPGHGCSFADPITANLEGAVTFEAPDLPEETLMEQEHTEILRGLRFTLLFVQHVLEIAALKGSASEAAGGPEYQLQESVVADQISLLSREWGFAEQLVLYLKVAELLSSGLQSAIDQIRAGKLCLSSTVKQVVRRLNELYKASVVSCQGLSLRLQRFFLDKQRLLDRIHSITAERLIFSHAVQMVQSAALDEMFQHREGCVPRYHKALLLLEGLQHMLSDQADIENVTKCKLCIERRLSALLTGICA

[2] = biological target: T1, HA-miniTurbo-tagged ULK1 (unc-51 like autophagy activating kinase 1); assay: affinity purification with mass spectrometry
[3] = biological target: T1, HA-miniTurbo-tagged ULK1 (unc-51 like autophagy activating kinase 1); assay: proximity labelling

Measured: binding

Bcl-2-associated athanogene 2 (BAG2), endogenous (from UniProt O95816 1-211)
binds: all assays above

These are yes or no findings as the source states them, for the method shown. Binding seen in cells or lysates may run through a third protein. These calls come from enrichment with a bait or labelling near it, and not all partners need be listed. Sequences can lack the tags named with a protein.
